Article PMC9864808, “Exploring Mannosylpurines as Copper Chelators and Cholinesterase Inhibitors with Potential for Alzheimer’s Disease” (Pharmaceuticals, 2022)

test: UV-Visible chelating study, copper; details: UV-Visible absorption, ion up to 10 μM, water/DMSO
Procedure: The chelating activity of all purine nucleoside probes was evaluated by the UV-Visible method in order to determine compounds’ absorption spectra in the absence and in the presence of Cu^2+ at concentrations ranging from 1 μM to 10 μM. […] The resulting wavelength shift from λ = 280 to λ = 325 nm indicates a conformational rearrangement induced by interaction with Cu^2+.
UV-Visible spectroscopy offers the advantage of high sensitivity towards small changes that affect the electronic properties of ligand receptors, so absorption spectra of all reported compounds have been evaluated by recording UV-visible properties in subsequent conditions: 1.5 mL 1 × 10^−4M of the probe are added to 1.5 mL 2 × 10^−5M of each ion chloride salt’s solution (Copper Chloride (CuCl2), Zinc Chloride (ZnCl2), Iron (II) Chloride (FeCl2) and Aluminum Chloride (AlCl3)). A mixture of distilled water/DMSO 95:5 has been selected as a solvent for compounds 5–10 and 12. For compounds 14–16, the selected solvent was a mixture of distilled water/DMSO 90:10 due to poor water solubility. Furthermore, a titration assay of each compound has been carried out by adding increasing concentration of selected ion (final ion concentration = 1 µM, 2 µM, 3 µM, 5 µM, and 10 µM).

In order of rising “wavelength after shift induced by interaction with Cu^2+” value:
1. CC(=O)O[C@@H]1[C@@H](OC(C)=O)[C@H](C)O[C@@H](n2cnc3c(NC(=O)c4ccccc4)ncnc32)[C@@H]1OC(C)=O [Compound 12, 6-benzamido-9-(6-deoxy-2,3,4-tri-O-acetyl-α-L-mannopyranosyl)purine]  325 nm
2. C[C@@H]1O[C@@H](n2cnc3c(NC(=O)c4ccccc4)ncnc32)[C@H](OCc2ccccc2)[C@H](OCc2ccccc2)[C@H]1OCc1ccccc1 [Compound 15, 6-benzamido-9-(6-deoxy-2,3,4-tri-O-benzyl-α-L-mannopyranosyl)purine]  334 nm
3. C[C@@H]1O[C@H](n2cnc3c(NC(=O)c4ccccc4)ncnc32)[C@H](OCc2ccccc2)[C@H](OCc2ccccc2)[C@H]1OCc1ccccc1 [Compound 16, 6-benzamido-9-(6-deoxy-2,3,4-tri-O-benzyl-β-L-mannopyranosyl)purine]  345 nm
